Assay results published in the supplement of paper PMC10849652.
The other results are listed elsewhere or left out.

Protein sequences, listed by entry. Tags and fused reporters are not part of them. Lines headed by an entry give the natural chain unless they say otherwise; changes in a name come on top.
UniProt Q8N2F6: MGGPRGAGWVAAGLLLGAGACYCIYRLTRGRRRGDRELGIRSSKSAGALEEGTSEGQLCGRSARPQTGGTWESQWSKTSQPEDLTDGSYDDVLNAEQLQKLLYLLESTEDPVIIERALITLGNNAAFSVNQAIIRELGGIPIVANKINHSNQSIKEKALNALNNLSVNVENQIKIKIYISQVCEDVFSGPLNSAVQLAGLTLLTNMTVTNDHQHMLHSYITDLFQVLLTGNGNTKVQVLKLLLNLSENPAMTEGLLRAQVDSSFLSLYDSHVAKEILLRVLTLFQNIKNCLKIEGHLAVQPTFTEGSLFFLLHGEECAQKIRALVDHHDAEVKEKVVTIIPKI
UniProt Q66PJ3: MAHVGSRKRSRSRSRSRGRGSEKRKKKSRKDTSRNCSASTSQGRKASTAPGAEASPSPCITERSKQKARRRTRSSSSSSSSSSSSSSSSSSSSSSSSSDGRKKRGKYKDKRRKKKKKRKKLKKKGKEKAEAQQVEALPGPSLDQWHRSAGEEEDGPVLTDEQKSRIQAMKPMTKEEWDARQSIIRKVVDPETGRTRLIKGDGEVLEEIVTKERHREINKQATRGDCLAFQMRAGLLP
UniProt P35670: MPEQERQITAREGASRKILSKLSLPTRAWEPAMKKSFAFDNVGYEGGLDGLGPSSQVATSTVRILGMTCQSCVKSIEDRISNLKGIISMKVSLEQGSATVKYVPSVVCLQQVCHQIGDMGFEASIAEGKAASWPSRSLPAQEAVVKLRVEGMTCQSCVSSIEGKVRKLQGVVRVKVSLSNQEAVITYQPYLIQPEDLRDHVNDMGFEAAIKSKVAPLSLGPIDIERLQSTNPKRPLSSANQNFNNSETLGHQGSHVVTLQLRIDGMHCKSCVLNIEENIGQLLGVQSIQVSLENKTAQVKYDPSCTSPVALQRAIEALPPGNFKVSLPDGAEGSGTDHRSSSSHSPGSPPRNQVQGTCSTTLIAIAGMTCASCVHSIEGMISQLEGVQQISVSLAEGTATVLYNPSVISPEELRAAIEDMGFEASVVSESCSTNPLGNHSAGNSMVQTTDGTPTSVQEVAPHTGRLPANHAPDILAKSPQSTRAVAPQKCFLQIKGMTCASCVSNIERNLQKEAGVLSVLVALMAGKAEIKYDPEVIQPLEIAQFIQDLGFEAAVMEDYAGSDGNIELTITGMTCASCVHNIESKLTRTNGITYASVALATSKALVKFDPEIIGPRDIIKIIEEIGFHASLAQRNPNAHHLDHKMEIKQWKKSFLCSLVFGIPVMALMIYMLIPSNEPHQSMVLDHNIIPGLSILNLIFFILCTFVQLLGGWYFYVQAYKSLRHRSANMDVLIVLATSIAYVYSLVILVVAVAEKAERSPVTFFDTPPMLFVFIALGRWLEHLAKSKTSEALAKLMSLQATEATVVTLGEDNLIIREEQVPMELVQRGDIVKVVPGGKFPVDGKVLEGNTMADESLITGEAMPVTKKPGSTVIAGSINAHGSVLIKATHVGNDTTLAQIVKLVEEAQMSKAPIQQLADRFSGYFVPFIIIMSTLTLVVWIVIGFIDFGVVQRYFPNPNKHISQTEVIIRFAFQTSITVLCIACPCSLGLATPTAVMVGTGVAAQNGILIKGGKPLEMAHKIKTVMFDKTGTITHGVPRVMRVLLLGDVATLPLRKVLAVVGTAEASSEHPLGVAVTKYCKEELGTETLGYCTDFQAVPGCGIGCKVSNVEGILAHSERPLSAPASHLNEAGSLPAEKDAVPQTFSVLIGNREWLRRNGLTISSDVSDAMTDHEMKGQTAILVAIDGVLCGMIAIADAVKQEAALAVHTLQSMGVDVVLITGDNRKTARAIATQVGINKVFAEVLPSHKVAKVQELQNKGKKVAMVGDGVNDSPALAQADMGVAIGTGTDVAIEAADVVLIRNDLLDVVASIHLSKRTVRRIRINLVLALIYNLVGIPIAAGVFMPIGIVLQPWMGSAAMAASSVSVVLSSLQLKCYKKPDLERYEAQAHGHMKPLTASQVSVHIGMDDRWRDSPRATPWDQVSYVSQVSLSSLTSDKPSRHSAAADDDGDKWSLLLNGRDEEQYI
UniProt Q9UII2: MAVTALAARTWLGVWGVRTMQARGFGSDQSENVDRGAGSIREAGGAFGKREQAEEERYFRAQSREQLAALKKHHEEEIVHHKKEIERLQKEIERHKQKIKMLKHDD
UniProt P36405: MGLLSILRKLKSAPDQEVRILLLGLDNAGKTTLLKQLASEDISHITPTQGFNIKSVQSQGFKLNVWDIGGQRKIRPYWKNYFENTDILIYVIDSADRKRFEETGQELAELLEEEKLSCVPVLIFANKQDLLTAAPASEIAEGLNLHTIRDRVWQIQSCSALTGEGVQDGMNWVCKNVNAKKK
UniProt Q16864, whole entry, looked up: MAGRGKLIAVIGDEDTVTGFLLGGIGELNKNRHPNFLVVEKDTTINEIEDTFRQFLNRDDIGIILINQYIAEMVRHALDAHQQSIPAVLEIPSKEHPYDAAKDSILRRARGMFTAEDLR
UniProt O75915: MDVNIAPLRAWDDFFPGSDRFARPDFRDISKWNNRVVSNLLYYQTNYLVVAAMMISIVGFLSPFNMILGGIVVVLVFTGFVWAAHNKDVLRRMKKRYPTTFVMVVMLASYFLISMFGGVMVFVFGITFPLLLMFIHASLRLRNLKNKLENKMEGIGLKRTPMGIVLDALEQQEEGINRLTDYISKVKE
UniProt Q8NBU5: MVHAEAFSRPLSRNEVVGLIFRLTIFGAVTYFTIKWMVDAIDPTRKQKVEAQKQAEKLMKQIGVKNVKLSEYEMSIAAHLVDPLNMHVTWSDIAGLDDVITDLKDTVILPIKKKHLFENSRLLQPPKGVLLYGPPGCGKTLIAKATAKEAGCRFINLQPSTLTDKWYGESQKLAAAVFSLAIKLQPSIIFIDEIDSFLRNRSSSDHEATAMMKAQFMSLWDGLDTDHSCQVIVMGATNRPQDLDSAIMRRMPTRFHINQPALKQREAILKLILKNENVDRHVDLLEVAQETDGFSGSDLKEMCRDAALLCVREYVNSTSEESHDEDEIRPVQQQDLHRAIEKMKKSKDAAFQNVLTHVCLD
UniProt Q9Y487, whole entry, looked up: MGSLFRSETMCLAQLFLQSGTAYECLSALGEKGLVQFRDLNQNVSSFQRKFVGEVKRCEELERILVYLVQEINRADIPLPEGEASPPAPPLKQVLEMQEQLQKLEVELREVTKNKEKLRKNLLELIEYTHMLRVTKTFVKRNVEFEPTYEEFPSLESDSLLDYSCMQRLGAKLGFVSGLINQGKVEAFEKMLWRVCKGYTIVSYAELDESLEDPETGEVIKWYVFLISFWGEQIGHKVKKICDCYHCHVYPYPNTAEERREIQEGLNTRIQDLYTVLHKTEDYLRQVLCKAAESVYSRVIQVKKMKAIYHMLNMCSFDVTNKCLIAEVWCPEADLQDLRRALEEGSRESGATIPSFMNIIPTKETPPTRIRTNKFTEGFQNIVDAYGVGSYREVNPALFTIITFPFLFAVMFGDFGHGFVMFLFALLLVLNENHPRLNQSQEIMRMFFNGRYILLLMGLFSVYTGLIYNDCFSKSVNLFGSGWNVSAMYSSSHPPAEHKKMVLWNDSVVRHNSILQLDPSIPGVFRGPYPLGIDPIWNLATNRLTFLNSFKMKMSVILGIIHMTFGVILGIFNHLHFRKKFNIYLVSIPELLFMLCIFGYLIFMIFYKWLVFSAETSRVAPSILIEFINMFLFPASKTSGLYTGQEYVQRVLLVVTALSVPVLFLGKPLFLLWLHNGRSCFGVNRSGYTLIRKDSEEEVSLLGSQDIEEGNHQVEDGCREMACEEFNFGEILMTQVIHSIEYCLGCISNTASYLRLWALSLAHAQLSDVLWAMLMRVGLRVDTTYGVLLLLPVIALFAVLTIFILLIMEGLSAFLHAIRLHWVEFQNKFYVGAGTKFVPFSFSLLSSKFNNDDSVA
UniProt P18859: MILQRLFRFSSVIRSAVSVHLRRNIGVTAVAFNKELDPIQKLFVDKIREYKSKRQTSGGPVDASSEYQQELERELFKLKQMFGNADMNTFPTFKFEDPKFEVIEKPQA
UniProt P27449, whole entry, looked up: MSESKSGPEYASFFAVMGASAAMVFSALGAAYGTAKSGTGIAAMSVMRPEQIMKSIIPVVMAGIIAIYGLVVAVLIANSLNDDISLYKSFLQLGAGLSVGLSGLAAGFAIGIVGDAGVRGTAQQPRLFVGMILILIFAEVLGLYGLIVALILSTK
UniProt Q9UBL3, whole entry, looked up: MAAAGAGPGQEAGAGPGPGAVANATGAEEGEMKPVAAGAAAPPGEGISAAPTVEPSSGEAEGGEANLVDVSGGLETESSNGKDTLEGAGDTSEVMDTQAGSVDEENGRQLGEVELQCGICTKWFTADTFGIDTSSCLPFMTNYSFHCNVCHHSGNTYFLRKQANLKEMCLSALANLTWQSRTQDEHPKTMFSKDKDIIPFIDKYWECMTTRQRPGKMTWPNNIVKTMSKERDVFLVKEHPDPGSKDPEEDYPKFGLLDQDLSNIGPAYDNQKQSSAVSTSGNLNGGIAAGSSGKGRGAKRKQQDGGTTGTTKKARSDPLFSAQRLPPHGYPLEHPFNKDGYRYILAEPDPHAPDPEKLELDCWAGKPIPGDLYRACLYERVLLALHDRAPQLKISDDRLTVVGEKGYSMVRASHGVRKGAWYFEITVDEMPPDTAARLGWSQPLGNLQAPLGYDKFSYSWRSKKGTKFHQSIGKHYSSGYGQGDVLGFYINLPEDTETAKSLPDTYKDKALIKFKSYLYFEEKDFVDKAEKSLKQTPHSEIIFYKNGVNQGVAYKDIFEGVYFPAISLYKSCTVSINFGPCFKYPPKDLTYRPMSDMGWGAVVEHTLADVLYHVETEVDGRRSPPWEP

Experiments:
Experiment in all cases: log2 fold change, soluble protein after heating vs DMSO (PISA); higher = thermal stabilisation; K562 cells, 10 uM, 30 min; active = over 0.2 and 3.5 SD of the protein, either way, in both replicates (recomputed)
[1] = compound: CS(=O)(=O)c1ccc(-c2cnc(N)c(C(=O)Nc3ccccc3)n2)cc1
Summary of the method: (§1)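 Soluble protein was defined as the supernatant after 21,000xg for 90 min. It came from K562 cells at 2×10^6 cells/mL given 10 μM compound for 30 min, heated in aliquots for 3 min across 48°C-58°C, pooled, and extracted in PBS with 0.5% NP-40 at 4°C, and was quantified by TMTpro 16plex LC-MS/MS with equalised channel sums. Thermal stability against control samples, from duplicates, is reported as log2 fold change.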

crizotinib = compound: C[C@@H](Oc1cc(-c2cnn(C3CCNCC3)c2)cnc1N)c1c(Cl)ccc(F)c1Cl [crizotinib]
Summary of the method: as §1

[2] = compound: C[C@@H]1COCCN1C2=NC(=NC(=C2)C3(CC3)S(=O)(=O)C)C4=C5C=CNC5=CC=C4
Summary of the method: as §1

[3] = compound: C[C@H](C1=CC=C(C=C1)C(=O)NC2=C3C=CNC3=NC=C2)N
Summary of the method: as §1

gandotinib = compound: Cc1cc(Nc2cc(CN3CCOCC3)c3nc(C)c(Cc4ccc(Cl)cc4F)n3n2)n[nH]1 [gandotinib]
Summary of the method: as §1

[4] = compound: Cc1cc(SCc2sc(-c3ccc(C(F)(F)F)cc3)nc2C)ccc1OCC(=O)O
Summary of the method: as §1

doramapimod = compound: Cc1ccc(-n2nc(C(C)(C)C)cc2NC(=O)Nc2ccc(OCCN3CCOCC3)c3ccccc23)cc1 [doramapimod]
Summary of the method: as §1

ispinesib = compound: Cc1ccc(C(=O)N(CCCN)[C@@H](c2nc3cc(Cl)ccc3c(=O)n2Cc2ccccc2)C(C)C)cc1 [ispinesib]
Summary of the method: as §1

bafetinib = compound: Cc1ccc(NC(=O)c2ccc(CN3CC[C@H](N(C)C)C3)c(C(F)(F)F)c2)cc1Nc1nccc(-c2cncnc2)n1 [bafetinib]
Summary of the method: as §1

[5] = compound: Cc1cccc(CC(=O)N2CCc3c2ccc(-c2cn(C)c4ncnc(N)c24)c3F)n1
Summary of the method: as §1

nilotinib = compound: Cc1cn(-c2cc(NC(=O)c3ccc(C)c(Nc4nccc(-c5cccnc5)n4)c3)cc(C(F)(F)F)c2)cn1 [nilotinib]
Summary of the method: as §1

[6] = compound: Cc1nc(Nc2n[nH]c3c2CN(C(=O)N[C@H](CN(C)C)c2ccccc2)C3(C)C)c2sccc2n1
Summary of the method: as §1

dasatinib = compound: Cc1nc(Nc2ncc(C(=O)Nc3c(C)cccc3Cl)s2)cc(N2CCN(CCO)CC2)n1 [dasatinib]
Summary of the method: as §1

[7] = compound: Cc1ncc(-c2ccnc(Nc3ccc(S(C)(=O)=O)cc3)n2)n1C(C)C
Summary of the method: as §1

[8] = compound: Cn1cc(-c2ccc3c(c2)CCN3C(=O)Cc2cccc(C(F)(F)F)c2)c2c(N)ncnc21
Summary of the method: as §1

[9] = compound: Cn1cc(-c2ccc3nnc(C(F)(F)c4ccc5ncccc5c4)n3n2)cn1
Summary of the method: as §1

tipifarnib = compound: Cn1cncc1[C@@](N)(c1ccc(Cl)cc1)c1ccc2c(c1)c(-c1cccc(Cl)c1)cc(=O)n2C [tipifarnib]
Summary of the method: as §1

mubritinib = compound: FC(F)(F)c1ccc(/C=C/c2nc(COc3ccc(CCCCn4ccnn4)cc3)co2)cc1 [mubritinib]
Summary of the method: as §1

duvelisib = compound: C[C@H](Nc1ncnc2nc[nH]c12)c1cc2cccc(Cl)c2c(=O)n1-c1ccccc1 [duvelisib]
Summary of the method: as §1

tozasertib = compound: Cc1cc(Nc2cc(N3CCN(C)CC3)nc(Sc3ccc(NC(=O)C4CC4)cc3)n2)n[nH]1 [tozasertib]
Summary of the method: as §1

Target	log2 fold change [1]	log2 fold change (crizotinib)	log2 fold change [2]	log2 fold change [3]	log2 fold change (gandotinib)	log2 fold change [4]	log2 fold change (doramapimod)	log2 fold change (ispinesib)	log2 fold change (bafetinib)	log2 fold change [5]	log2 fold change (nilotinib)	log2 fold change [6]	log2 fold change (dasatinib)	log2 fold change [7]	log2 fold change [8]	log2 fold change [9]	log2 fold change (tipifarnib)	log2 fold change (mubritinib)	log2 fold change (duvelisib)	log2 fold change (tozasertib)
ARMC10 (UniProt Q8N2F6)	inactive: 0.002	inactive: -0.04	inactive: 0.016	inactive: 0.006	inactive: -0.09	inactive: 0.108	inactive: 0.018	inactive: 0.027	inactive: 0.046	inactive: 0.015	inactive: -0.063	inactive: -0.034	inactive: -0.125	inactive: -0.012	inactive: -0.052	inactive: -0.115	inactive: 0.001	inactive: -0.096	–	–
ARL6IP4 (UniProt Q66PJ3)	inactive: 0.014	inactive: 0.026	inactive: 0.036	inactive: -0.093	inactive: 0.114	inactive: -0.038	inactive: 0.013	inactive: -0.051	inactive: -0.042	inactive: 0.002	inactive: -0.012	active: -0.459	inactive: 0.016	inactive: 0.013	inactive: 0.112	inactive: -0.038	inactive: 0.019	inactive: 0.023	–	–
ATP7B (UniProt P35670)	inactive: -0.009	inactive: -0.005	inactive: 0.03	inactive: 0.065	inactive: -0.141	inactive: -0.014	inactive: 0.137	inactive: -0.015	inactive: -0.009	inactive: -0.032	inactive: 0.006	inactive: -0.017	inactive: -0.153	inactive: 0.087	inactive: 0.015	inactive: 0.001	inactive: 0.019	inactive: -0.079	–	–
ATP5IF1 (UniProt Q9UII2)	inactive: 0.004	inactive: 0.058	inactive: -0.006	inactive: 0.018	inactive: -0.056	inactive: -0.082	inactive: -0.015	inactive: -0.019	inactive: -0.039	inactive: -0.101	inactive: -0.038	inactive: 0.005	inactive: 0.055	inactive: -0.042	inactive: -0.002	inactive: 0.094	inactive: 0.059	inactive: 0.033	–	–
ARL3 (UniProt P36405)	inactive: 0.029	inactive: 0.041	inactive: 0.019	inactive: -0.017	inactive: 0.025	inactive: -0.012	inactive: -0.003	inactive: 0.063	inactive: -0.024	inactive: -0.029	inactive: 0.011	inactive: 0.006	inactive: 0.001	inactive: -0.003	inactive: 0.022	inactive: -0.018	inactive: -0.034	inactive: 0.029	–	–
ATP6V1F isoform 2 (UniProt Q16864)	inactive: -0.303	inactive: 0.034	inactive: -0.025	inactive: -0.031	inactive: 0.138	inactive: -0.043	inactive: 0.007	inactive: 0.076	inactive: 0	inactive: -0.053	inactive: 0.078	inactive: -0.03	inactive: 0.034	inactive: -0.028	inactive: 0.101	inactive: 0.132	inactive: 0.32	inactive: 0.045	–	–
ARL6IP5 (UniProt O75915)	inactive: -0.021	inactive: 0.013	inactive: -0.025	inactive: -0.066	inactive: -0.046	inactive: -0.007	inactive: -0.04	inactive: -0.143	inactive: -0.004	inactive: 0.015	inactive: -0.07	inactive: 0.021	inactive: 0.012	inactive: 0.006	inactive: 0.004	inactive: 0.025	inactive: -0.026	inactive: -0.01	inactive: 0.031	inactive: -0.032
ATAD1 (UniProt Q8NBU5)	inactive: 0.004	inactive: 0.021	inactive: -0.013	inactive: 0.074	inactive: 0.144	inactive: 0.113	inactive: -0.003	inactive: -0.063	inactive: -0.007	inactive: 0.048	inactive: 0.02	inactive: -0.008	inactive: -0.033	inactive: -0.002	inactive: 0.037	inactive: -0.026	inactive: 0.014	inactive: -0.028	–	–
ATP6V0A2 (UniProt Q9Y487)	inactive: -0.002	inactive: -0.197	inactive: -0.048	inactive: 0.07	inactive: -0.006	inactive: 0.064	inactive: 0.09	inactive: -0.18	inactive: -0.041	inactive: 0.007	inactive: 0.035	inactive: 0.006	inactive: -0.006	inactive: -0.077	inactive: -0.019	inactive: 0.027	inactive: 0.008	inactive: -0.019	–	–
ATP5PF isoform 2 (UniProt P18859)	inactive: 0.098	inactive: 0.215	inactive: 0.057	inactive: -0.134	inactive: 0.163	inactive: -0.034	inactive: 0.044	inactive: 0.108	inactive: -0.048	inactive: -0.035	inactive: 0.054	inactive: 0.016	inactive: 0.088	inactive: -0.08	inactive: 0.11	inactive: 0.154	inactive: 0.049	inactive: 0.01	inactive: 0.068	inactive: 0.014
ATP6V0C (UniProt P27449)	inactive: -0.037	–	inactive: 0.075	inactive: 0.094	inactive: 0	inactive: 0.092	–	–	inactive: 0.058	inactive: 0.276	inactive: 0.133	inactive: -0.222	inactive: -0.095	inactive: 0.013	inactive: -0.127	–	inactive: 0.019	inactive: -0.112	inactive: 0.023	inactive: -0.021
ASH2L (UniProt Q9UBL3)	inactive: 0.008	inactive: 0.126	inactive: 0.046	inactive: 0.058	inactive: 0.004	inactive: 0.02	inactive: -0.068	inactive: 0.036	inactive: 0	inactive: -0.013	inactive: -0.008	inactive: -0.041	inactive: -0.004	inactive: 0.013	inactive: -0.07	inactive: -0.017	inactive: -0.041	inactive: -0.023	–	–
